# According to PubChem BioAssay AID2810 (NMMLSC, 2010):
# The list shows a part of the results. Shown are side measurements of this screen, not its main read-out; they come without a call.
# Experiment: modulators of CD8 T cell-vesicle binding, confirmation, cherry-picked primary hits, two concentrations (AID 2810);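 further: lower values mean blocking of vesicle binding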;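 on percent response (vesicle binding): ratio of mean FL2 vesicle stain of CD8+ cells to that row's control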
# Conditions: 2C CD8+ T cell-vesicle binding, flow cytometry; for double positive events: CD8+/vesicle+ events
# [1] = at 15.4 µM, stronger effect = lower value
Structure (SMILES),double positive events (at 7.7 µM),double positive events [1],percent response (vesicle binding) (at 7.7 µM)
CCOC(=O)n1c(=O)oc2cc(S(=O)(=O)N3CCOCC3)ccc21,9%,21.7%,258%
C/C(O)=C/c1nc2ccccc2[nH]c1=O,8.8%,17.4%,132%
O=S(=O)(Nc1nc2ccccc2nc1N1CCc2ccccc2C1)c1ccc(Cl)cc1,10.3%,22%,215%
C=CCSc1nnc2c(n1)[nH]c1c(C)cccc12,11.4%,18.8%,178%
O=C(Nc1nc2c(s1)CCCC2)C1COc2ccccc2O1 (stereo not given),21.7%,10.2%,423%
O=C(Cn1cc2c(n1)CCCC2)NCc1ccccn1,16.3%,4.8%,94.1%
Cc1cc(NC(=S)NC(=O)C2CC2)ccc1Br,10.1%,27.2%,344%
CCn1c(SCC(=O)Nc2ccc(OC)cc2)nc2nc3c(cc2c1=O)COC(C)(C)C3,7.4%,15.6%,294%
Cc1sc2ncnc(Sc3ccccc3C(=O)Nc3ccc(C#N)cc3)c2c1C,39.9%,27.6%,396%
COc1ccc(C(=O)Nc2c(N)nc(SCC(=O)NCC3CCCO3)[nH]c2=O)cc1 (stereo not given),10.1%,19.3%,335%
Cc1ccccc1C(=O)N1CCC(C(=O)Nc2ccc(C)c(S(=O)(=O)N3CCCCC3)c2)CC1,11.6%,21%,418%
COc1ccc(C(=O)CCC(C)(C)[N+](=O)[O-])cc1OC,6.7%,24.9%,76.5%
C=CCC[C@H](Cc1ccc(F)cc1)C(=O)OC[C@H](C)NC(=O)[C@@H](CC=C)CC(=O)N[C@H](CO)Cc1ccccc1,21.2%,12.5%,232%
COC(=O)c1ccc(NC(=O)COC(=O)C2=NN(c3ccccc3)C(=O)CC2)cc1,18.6%,9%,228%
Cc1ccc(N(C(=O)CNC(=O)c2ccco2)C(C(=O)NC2CCCCC2)c2cccnc2)cc1 (stereo not given),33.1%,9.3%,324%
COc1ccc(Nc2cc(C)nc3ncnn23)c(OC)c1,6.5%,17.4%,386%
Cc1cc(-c2n[nH]c(=S)n2/N=C/C=C/c2ccco2)n[nH]1,12.8%,25.4%,165%
O=c1[nH]c2ccccc2n1CCCOc1ccccc1,7.4%,13.5%,70.1%
N=c1oc2ccccc2cc1C(=O)NCc1ccccc1,9.8%,32.5%,421%
CCOc1ccccc1C1C(C(=O)Nc2ccc(OC)cc2)=C(C)Nc2nc(CCCO)nn21 (stereo not given),14.4%,26.1%,225%
O=[N+]([O-])c1ccc(Cl)c(S(=O)(=O)Nc2ccc(-c3ccc(N4CCOCC4)nn3)cc2)c1,9.4%,16.4%,388%
CC(C)c1ccc(C(C)NCCS(=O)(=O)c2ccc(Cl)cc2)cc1 (stereo not given),14.3%,21.8%,172%
CC(C)Oc1ccc(C(=O)CCN2CCCCC2)cc1,16.3%,14.1%,494%
Cc1ccc(-c2cc(-c3ccccc3)c(C#N)c(N)n2)o1,10%,19.8%,99.2%
COc1cc(OC)cc(-c2oc(=O)c3cc(OC)c(OC)cc3c2C(F)(F)F)c1,11.9%,26.9%,409%
CN(C)S(=O)(=O)Nc1ccccn1,26.8%,14.7%,311%
CCN(CC(=O)NCc1cccs1)C(=O)COc1ccc(C(C)=O)cc1,26.7%,5.8%,265%

Structure (SMILES),double positive events (at 7.7 µM),double positive events [1],percent response (vesicle binding) (at 7.7 µM)
COc1ccccc1CCNC(=O)C(=O)NCC1OCCCN1S(=O)(=O)c1ccc(F)cc1C (stereo not given),11%,28.7%,479%
O=c1[nH]nc(-c2ccccc2)cc1-c1ccccc1,6.9%,22.7%,206%
N#Cc1cccc(NC(=O)CN2C(=O)NC3(CCCCCC3)C2=O)c1,9%,21.9%,320%
CCN(C(=O)C1CCCN1S(=O)(=O)c1ccc2c(c1)n(C)c(=O)c(=O)n2C)c1ccccc1 (stereo not given),30.6%,11.4%,154%
Cc1ccc(C(=O)Nc2ccc3c(c2)C(=O)N(CC2CCCO2)C3=O)cc1 (stereo not given),12.2%,8.3%,469%
COc1cc(CN2CC(=O)N(c3ccc(C)c(C)c3)C2=S)cc(OC)c1OC,12.3%,27%,225%
Nc1nc(SCC(=O)Nc2ccc([N+](=O)[O-])cc2)[nH]c(=O)c1NC(=O)c1ccc(Br)o1,14.5%,22.1%,420%
CCSc1ccc([C@@H]2[C@@H]3C(=O)N(C)C(=O)[C@@H]3[C@]3(C(=O)OC)CCCCN23)cc1OC,19%,21.9%,172%
CCc1nnc(NC(=O)CSc2nnc(CNc3ccc(OC)cc3)n2C)s1,20.2%,20.8%,368%
CCN(CC)S(=O)(=O)c1ccc(Cl)c(NC(=O)COC(=O)C2CCCCC2)c1,8.8%,2.4%,339%
O=C(COC(=O)C12CC3CC(CC(Br)(C3)C1)C2)Nc1cccc(S(=O)(=O)N2CCOCC2)c1,20.8%,23.3%,140%
Cc1ccc(/C=N/N=C2/NC(=O)C(CC(=O)Nc3ccc(Cl)cc3)S2)o1 (stereo not given),14.1%,11.6%,155%
O=S(=O)(c1ccc(Cl)cc1)N1CCC(O)(c2cccnc2)CC1,20%,14%,271%
COc1ccccc1CC(NC(C)=O)C(=O)NC1CCN(c2nnnn2-c2ccccc2)CC1 (stereo not given),16.6%,11.1%,319%
Cc1cccc(-c2nc(C#N)c(NCc3ccco3)o2)c1,15.1%,19.3%,215%
CCOC(=O)c1c(NC(=O)CSc2nnc(C)s2)sc2c1CCC(CC)C2 (stereo not given),7.9%,29.3%,121%
Cc1ccc(C2C3=C(CC(C)(C)CC3=O)N=C3c4ccccc4C(=O)C32)cc1 (stereo not given),27.6%,14.1%,251%
CCCCNc1c(-c2ccc(SC3CCCCC3)cc2)nc2cnccn12,28.1%,32.5%,778%
CC1CC(C)CN(S(=O)(=O)c2ccc(C(=O)N3CCN(c4ccccc4)CC3)cc2)C1 (stereo not given),7.8%,24.5%,326%
NC(=O)CCn1c(=O)oc2ccccc21,19.7%,27%,456%
CCCCNC(=O)/C(C#N)=C/c1ccc2c(c1)OCCO2,22.1%,12.8%,131%
O=C(Nc1ncc([N+](=O)[O-])s1)c1cccs1,4.1%,41.4%,95.2%
C/C(CC(=O)Nc1ccccn1)=N\NC(=O)c1ccccc1,12%,27.6%,216%
O=C(Nc1ccc(-c2nc3ccccc3o2)cc1)c1ccc(N2C(=O)C3C4C=CC(C4)C3C2=O)cc1 (stereo not given),34.4%,9.2%,421%
O=C(NCCc1nc2ccc(Cl)cc2[nH]1)C1CCC(=O)N(Cc2cccc(F)c2)C1 (stereo not given),29.9%,4.3%,404%
O=C(Cn1c(=S)[nH]c2ccccc2c1=O)N1CCN(c2ccccc2)CC1,18.4%,19.5%,198%
CC1(C)Cc2c(sc3nc4n(c(=N)c23)CCC4)CO1,28.8%,17.1%,316%

# Taken from above.
# percent response (vesicle binding) (at 7.7 µM), `CCCCNc1c(-c2ccc(SC3CCCCC3)cc2)nc2cnccn12` is entered as 778%
# double positive events (at 7.7 µM), `COc1ccccc1CCNC(=O)C(=O)NCC1OCCCN1S(=O)(=O)c1ccc(F)cc1C` (stereo not given) is entered as 11%
# double positive events [1], `CCOC(=O)c1c(NC(=O)CSc2nnc(C)s2)sc2c1CCC(CC)C2` (stereo not given) is entered as 29.3%
# double positive events (at 7.7 µM), `N#Cc1cccc(NC(=O)CN2C(=O)NC3(CCCCCC3)C2=O)c1` is entered as 9%
# percent response (vesicle binding) (at 7.7 µM), `O=C(Cn1c(=S)[nH]c2ccccc2c1=O)N1CCN(c2ccccc2)CC1` is entered as 198%

# Further results:

Structure (SMILES),double positive events (at 7.7 µM),double positive events [1],percent response (vesicle binding) (at 7.7 µM)
O=C(NCc1ccc2c(c1)OCO2)C(C(=O)c1ccccc1)n1cc(Cl)ccc1=O (stereo not given),14%,22.1%,444%
Cc1ccc(Cl)c2c1NC(=O)C2=O,27.5%,19.3%,166%
C=CC(C)(C)c1c(O)c(CC=C(C)C)c(O)c2c(=O)c3ccc(O)c(O)c3oc12,15.9%,12.2%,222%
Cc1cc(NC(=O)C(C)SCC(=O)Nc2ccccc2N2CCCCC2)no1 (stereo not given),14.9%,17%,203%
CCN(CC)c1ccc(NC(=O)c2ccco2)cc1,8.2%,9.2%,84.2%
Cn1c(Cn2c(=O)sc3ccccc32)nnc1SCC(=O)NC1CCCCC1,16.9%,12%,111%
COc1ccc(OCC(O)CNC(=O)Nc2ccc(C(C)(C)C)cc2)cc1 (stereo not given),15%,15.4%,478%
O=C(COc1ccc(Cl)cc1[N+](=O)[O-])N1CCCCCC1,18.2%,12.7%,116%
CC(C)(C)c1cc(-c2ccccc2)no1,33.1%,30.7%,830%
COc1ccc(NC(=O)/C(C#N)=C/c2cc(C)n(-c3ccc(N4CCOCC4)c([N+](=O)[O-])c3)c2C)cc1,12.1%,27.7%,290%
O=C(Nc1nccs1)c1nc[nH]c1C(=O)NCc1ccccc1,25.1%,15.8%,241%
O=C(O)Cc1sc(Nc2ccccc2)nc1-c1ccc(Cl)cc1,12.5%,9.1%,232%
COc1ccc(/C=C2\SC(=O)N(CC(=O)Nc3cccc(C)c3)C2=O)cc1O,45.6%,23.5%,291%
NS(=O)(=O)c1ccc(NC(=O)c2ccccc2C(=O)N2CCCCC2)cc1,19.2%,28.3%,301%
CCCOc1ccc(N2C(=O)CC(N(C(=O)c3ccco3)c3ccc(OCCC)cc3)C2=O)cc1 (stereo not given),22%,17.9%,220%
Cc1cc(C)c(C#N)c(SCc2ccc3c(c2)OCO3)n1,5%,10.4%,310%
O=C(/C=C/c1ccc(Br)cc1)c1ccc(NC(=O)c2ccco2)cc1,26.8%,4.7%,132%
Cc1cc(Cl)c(OCCCSc2nc(C)cc(=O)[nH]2)c(Br)c1,10.3%,9.5%,114%
COc1ccc(-c2cc(CCCC(=O)NCc3ccccn3)no2)cc1,15.4%,20.9%,190%
CCCCC[C@@H](O)c1cc2ccccc2c(=O)o1,11.5%,13.9%,374%
O=C(CCCn1cnc([N+](=O)[O-])n1)Nc1ccc(Cl)cc1Cl,13.4%,10.1%,110%
O=C(c1cc2ccccc2oc1=O)N(c1ccc(Cl)cc1)C1C=CS(=O)(=O)C1 (stereo not given),16.4%,17.1%,480%
O=C(Oc1ccc(C(=S)N2CCOCC2)cc1)c1ccc(F)cc1,25.9%,22.8%,851%
CC(C)c1cc(C(=O)N/N=C/C(Br)=C/c2ccccc2)n[nH]1,16.8%,18%,185%
Cc1ccc(S(=O)(=O)N(C)CC(=O)OCC(=O)NCCc2ccc(S(N)(=O)=O)cc2)cc1,39.8%,16.2%,555%
Cc1ccc(N2C(=O)S/C(=C/c3cn(C)c4ccccc34)C2=O)cc1,37.8%,33.5%,264%
